Here are results for 5 substances from doi:10.1101/2020.02.26.965178.

Amino acid sequences for entries named in this document (tags omitted).
UniProt P70396: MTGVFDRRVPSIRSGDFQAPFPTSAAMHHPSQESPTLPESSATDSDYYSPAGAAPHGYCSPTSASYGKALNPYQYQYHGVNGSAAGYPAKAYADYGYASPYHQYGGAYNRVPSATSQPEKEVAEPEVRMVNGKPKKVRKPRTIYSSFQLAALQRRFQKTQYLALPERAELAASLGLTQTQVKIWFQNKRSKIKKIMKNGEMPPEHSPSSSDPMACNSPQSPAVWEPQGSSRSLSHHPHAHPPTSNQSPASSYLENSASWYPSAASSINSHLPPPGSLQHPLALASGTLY
UniProt Q8BMJ8: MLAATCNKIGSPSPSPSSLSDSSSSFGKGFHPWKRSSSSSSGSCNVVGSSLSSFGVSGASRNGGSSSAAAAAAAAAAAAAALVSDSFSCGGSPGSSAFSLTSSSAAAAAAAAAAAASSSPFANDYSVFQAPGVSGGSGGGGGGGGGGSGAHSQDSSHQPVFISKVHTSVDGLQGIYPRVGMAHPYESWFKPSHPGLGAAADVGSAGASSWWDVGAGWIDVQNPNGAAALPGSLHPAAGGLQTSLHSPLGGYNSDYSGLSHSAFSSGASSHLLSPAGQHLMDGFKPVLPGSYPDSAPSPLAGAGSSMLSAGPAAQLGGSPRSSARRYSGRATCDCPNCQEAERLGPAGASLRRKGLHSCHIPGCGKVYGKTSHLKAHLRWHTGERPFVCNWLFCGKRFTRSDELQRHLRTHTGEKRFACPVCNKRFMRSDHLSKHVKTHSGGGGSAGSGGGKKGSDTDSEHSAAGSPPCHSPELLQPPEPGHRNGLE
UniProt Q9ESX2: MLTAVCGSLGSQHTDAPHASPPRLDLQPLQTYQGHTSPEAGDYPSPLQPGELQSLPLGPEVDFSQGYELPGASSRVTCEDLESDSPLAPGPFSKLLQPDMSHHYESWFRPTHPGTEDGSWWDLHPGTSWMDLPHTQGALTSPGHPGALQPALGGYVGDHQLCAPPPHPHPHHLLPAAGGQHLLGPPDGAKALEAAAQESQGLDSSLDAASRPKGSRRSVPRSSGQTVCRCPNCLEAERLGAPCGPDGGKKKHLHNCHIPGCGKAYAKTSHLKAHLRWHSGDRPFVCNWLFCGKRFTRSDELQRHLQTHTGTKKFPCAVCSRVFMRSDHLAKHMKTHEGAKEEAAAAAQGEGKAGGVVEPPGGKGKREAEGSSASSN

Results are given in words; binding and its absence hold for the method and conditions named. For some assays here: In cells and extracts the contact can be indirect. Some results given as binding are weak or reduced against the parent protein; the word gives no strength.

Experiment [1] concerns the target Myc-Dlx5 (UniProt P70396). In words: co-IP.
For experiment [2], the target named is Myc-Dlx5 (UniProt P70396). In words: native gel or EMSA. A general note: Mobility shift assays separate free from complexed probe on a gel.
A further experiment concerns the target FLAG-Sp8 (UniProt Q8BMJ8). As to the kind of experiment: co-IP.
Experiment [3] addresses Sp6 fused at its C-terminus to a YFP moiety (Myc-Sp6-YN, Myc-Sp6-YC) (UniProt Q9ESX2). As to the kind of experiment: split reporter.
Experiment [4] deals with Sp8 fused at its C-terminus to a YFP moiety (Sp8-YN, Sp8-YC) (UniProt Q8BMJ8). In words: split reporter.

As for FLAG-Sp6 (from UniProt Q9ESX2 1-376), the binding entry in the experiment with Myc-Dlx5 [1] and with Myc-Dlx5 [2] was “binds” throughout. Take FLAG-Sp8 (from UniProt Q8BMJ8 1-486): the binding entry with Myc-Dlx5 [1] and in the experiment with Myc-Dlx5 [2] was “binds” each time.

Take “Sp6 as used in the co-immunoprecipitation with Sp8 (construct not told) (from UniProt Q9ESX2 1-376)”: in the experiment with FLAG-Sp8, the binding entry is given as “binds”.

For the substance “Sp6 fused at its C-terminus to a YFP moiety (Myc-Sp6-YN, Myc-Sp6-YC) (from UniProt Q9ESX2 1-376)”, the binding entry in experiment [3] and in experiment [4] was “binds” in each case. As for “Sp8 fused at its C-terminus to a YFP moiety (Sp8-YN, Sp8-YC) (from UniProt Q8BMJ8 1-486)”, the binding result in experiment [4] is listed as “binds”.
